Experimental data reported in the supplement of paper PMC5407854, “Inhibitor of ppGalNAc-T3-mediated O-glycosylation blocks cancer cell invasiveness and lowers FGF23 levels” (eLife, 2017).
The other results are listed elsewhere or left out. Small differences around the control level are noise.

Test system: ppGalNAc-T2 sensor
Test: T2 sensor activation Q score (MG/GFP ratio z-score vs DMSO controls) (SD units); higher = more sensor activation (inhibition of ppGalNAc-T2 glycosylation)
Details: HEK293 sensor cells; 10 µM; 6 h
Experimental: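 Cells were treated with compound at 10 uM for 6 h, then MG/GFP ratio was read by flow cytometry (10,000 cells per well, duplicate wells). Q = (R - R_neg)/SD_neg relative to DMSO vehicle controls; the signal rises when the glycosyltransferase is inhibited.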

Row | SMILES | T2 sensor activation Q score
1 | O=C(CCC1CCCC1)N1CCN(C(=O)c2cccs2)CC1 | 0.06
2 | COc1cc2nc(C)[nH]c2cc1OC | -1.14
3 | CC1CN(CCC(C)c2ccccc2)CC(C)O1 (stereo not given) | 0.325
4 | CN(Cc1ccccc1)Cc1c(F)cccc1F | 0.44
5 | CCN(CC)c1ccc(NC(=O)c2ccco2)cc1 | 1.79
6 | Nc1nc(-c2ccco2)nc(-c2ccco2)n1 | -0.35
7 | CC(=Nc1ccccc1)Nc1ccccc1 | -0.185
8 | CN1CCCN(Cc2ccccc2F)CC1 | 0.06
9 | CC(C)c1ccc(C(=O)c2ccccc2C(=O)O)cc1 | -0.065
10 | COc1cccc(NC(=O)CCCc2ccccc2)c1 | 0.23
11 | COc1ccc(C2C(C(C)=O)=C(O)C(=O)N2C)cc1 (stereo not given) | -0.305
12 | Cc1cccc(C)c1OCCCN1CCOCC1 | -0.515
13 | CCCc1cc2ccccc2o1 | -0.49
14 | CCOC(=O)N1CCN(CC(O)COc2ccc(Br)cc2)CC1 (stereo not given) | 0.195
15 | c1ccc(CNc2ncnc3nc[nH]c23)cc1 | 0.325
16 | O=C(O)c1cccc(S(=O)(=O)N2CCCCCC2)c1 | 1.29
17 | CC(=O)c1cccc(NC(=O)C(C)N2C(=O)c3ccccc3C2=O)c1 (stereo not given) | 0.04
18 | CCCCOc1ccc(-c2ncc([N+](=O)[O-])cn2)cc1 | 0.205
19 | O=C(Nc1cccc(Cl)c1)N1CCCCCC1 | 2.41
20 | COc1cc(S(=O)(=O)N2CCOCC2)c(OC)cc1Cl | 0.695

Nos. 5 to 7 from above:
Row | SMILES | T2 sensor activation Q score
5 | CCN(CC)c1ccc(NC(=O)c2ccco2)cc1 | 1.79
6 | Nc1nc(-c2ccco2)nc(-c2ccco2)n1 | -0.35
7 | CC(=Nc1ccccc1)Nc1ccccc1 | -0.185

The list goes on:

Row | SMILES | T2 sensor activation Q score
21 | COc1ccccc1NC1=CC(=O)CC(C)(C)C1 | -0.255
22 | CCC1CCCCN1S(=O)(=O)c1cc(C)c(C)cc1OC (stereo not given) | 0.415
23 | O=S(=O)(c1ccccc1)c1ccc(N2CCCCC2)cc1 | -0.105
24 | COc1ccc(CNC2CCCCC2C)cc1 (stereo not given) | 0.61
25 | OC1CCN(Cc2ccc3c(c2)OCO3)CC1 | -0.045
26 | O=C1N=C(c2ccccc2)C(c2ccccc2)N1 (stereo not given) | 0.285
27 | Cc1ccc(C)c(CN2CCC(O)CC2)c1 | -0.42
28 | Cc1cccc(NC2=C([N+](=O)[O-])CS(=O)(=O)C2)c1 | -0.62
29 | CCN1CCN(Cc2coc3ccccc3c2=O)CC1 | -0.18
30 | CC(C)CC(=O)N1CCN(Cc2ccccc2Cl)CC1 | -0.55
31 | O=S(=O)(Cc1ccccc1)c1nc2ccccc2[nH]1 | 0.475
32 | CCOc1ccccc1N1CCN(Cc2ccc(Br)s2)CC1 | -0.405
33 | CN(C)C1=C(Nc2ccc(F)c(F)c2)C(=O)c2ccccc2C1=O | -0.265
34 | O=C(Nc1ccccc1F)c1ccco1 | -0.83
35 | Cc1cccc(CN2CCN(c3ccccn3)CC2)c1 | -0.21
36 | O=C(c1cccs1)N1CCN(c2ccc([N+](=O)[O-])cc2)CC1 | 0.375
37 | O=[N+]([O-])c1cccc(CN2CCC(O)CC2)c1 | 0.69
38 | O=C(NN1C(=O)c2ccccc2C1=O)c1cccc(Cl)c1 | -0.575
39 | CCOC(=O)N1CCN(Cc2cccc(F)c2)CC1 | 0.42
40 | NNC(=O)c1n[nH]c2c1CCC2 | 2.38
